Results are given in words; binding and its absence hold for the method and conditions named. Binding seen in cells or lysates may run through a third protein. A result given as binding can be weak or reduced; the word gives no strength.

The target in the assay is ASC (apoptosis-associated speck-like protein containing a CARD) (pig (endogenous in PAMs)). The assay is described as follows: co-IP; lysates of PAMs infected with PRRSV (MOI = 1, indicated times) or primed with LPS and treated with nigericin; immunoprecipitation with anti-ASC antibody and Dynabeads protein G, 1 h at room temperature; immunoblot for NLRP3, CASP1 and ASC. In general terms: Immunoblotting shows a protein as a band on a membrane.

B1: caspase-1 (CASP1) (enzyme, UniProt Q9N2I1 1-404)
chain: MADKVLKEKRRLFVRSVAMGTINGLLDELLETRVLNQEEVEIVRGENATVMDKARALIDSVIRKGPQACQICINHICGDDPHLAGVLELSTGSQSGKCLTVQESQAVVPPFPAPQTVQDNPVKPASSEPRGSLKLCPPDIAQRLWKEKSAEIYPIMGKSIRTRLALIICNTEFENLPRRDGADVDIRDMKILLEDLGYSVDVRENLTASDMAIELKAFAARPEHKSSDSTFLVLMSHGIQAGICGKKYSEEVPDVLEVNTVFQILNTLNCPSLKDKPKVIIIQACRGEKQGVVWIKDSVGPSGNSSLLAAEDFEYDAIKKAHIEKDFIAFCSSTPDNVSWRHPLLGSLFIIKLIKILQEHAWSCGLEEIFRKVRFSFELADGRAQMPTAERVTLTRSFYLFPGH
Regarding B1, the binding result is recorded as “binds”.

The values are drawn from paper PMC9327688.
